# Some of the results follow.
# B1: Endo180d1-D4 (Homo sapiens), Q9UBG0 (protein)
# chain: MGPGRPAPAPWPRHLLRCVLLLGCLHLGRPGAPGDAALPEPNVFLIFSHGLQGCLEAQGGQVRVTPACNTSLPAQRWKWVSRNRLFNLGTMQCLGTGWPGTNTTASLGMYECDREALNLRWHCRTLGDQLSLLLGARTSNISKPGTLERGDQTRSGQWRIYGSEEDLCALPYHEVYTIQGNSHGKPCTIPFKYDNQWFHGCTSTGREDGHLWCATTQDYGKDERWGFCPIKSNDCETFWDKDQLTDSCYQFNFQSTLSWREAWASCEQQGADLLSITEIHEQTYINGLLTGYSSTLWIGLNDLDTSGGWQWSDNSPLKYLNWESDQPDNPSEENCGVIRTESSGGWQNRDCSIALPYVCKKKPNATAEPTPPDRWANVKVECEPSWQPFQGHCYRLQAEKRSWQESKKACLRGGGDLVSIHSMAELEFITKQIKQEVEELWIGLNDLKLQMNFEWSDGSLVSFTHWHPFEPNNFRDSLEDCVTIWGPEGRWNDSPCNQSLPSICKKAGQLSQGAAEEDHGCRKGWTWHSPSCYWLGEDQVTYSEARRLCTDHGSQLVTITNRFEQAFVSSLIYNWEGEYFWTALQDLNSTGSFFWLSGDEVMYTHWNRDQPGYSRGGCVALATGSAMGLWEVKNCTSFRARYICRQSLGTPVTPELPGPDPTPSLTGSCPQGWASDTKLRYCYKVFSSERLQDKKSWVQAQGACQELGAQLLSLASYEEEHFVANMLNKIFGESEPEIHEQHWFWIGLNRRDPRGGQSWRWSDGVGFSYHNFDRSRHDDDDIRGCAVLDLASLQWVAMQCDTQLDWICKIPRGTDVREPDDSPQGRREWLRFQEAEYKFFEHHSTWAQAQRICTWFQAELTSVHSQAELDFLSHNLQKFSRAQEQHWWIGLHTSESDGRFRWTDGSIINFISWAPGKPRPVGKDKKCVYMTASREDWGDQRCLTALPYICKRSNVTKETQPPDLPTTALGGCPSDWIQFLNKCFQVQGQEPQSRVKWSEAQFSCEQQEAQLVTITNPLEQAFITASLPNVTFDLWIGLHASQRDFQWVEQEPLMYANWAPGEPSGPSPAPSGNKPTSCAVVLHSPSAHFTGRWDDRSCTEETHGFICQKGTDPSLSPSPAALPPAPGTELSYLNGTFRLLQKPLRWHDALLLCESHNASLAYVPDPYTQAFLTQAARGLRTPLWIGLAGEEGSRRYSWVSEEPLNYVGWQDGEPQQPGGCTYVDVDGAWRTTSCDTKLQGAVCGVSSGPPPPRRISYHGSCPQGLADSAWIPFREHCYSFHMELLLGHKEARQRCQRAGGAVLSILDEMENVFVWEHLQSYEGQSRGAWLGMNFNPKGGTLVWQDNTAVNYSNWGPPGLGPSMLSHNSCYWIQSNSGLWRPGACTNITMGVVCKLPRAEQSSFSPSALPENPAALVVVLMAVLLLLALLTAALILYRRRQSIERGAFEGARYSRSSSSPTEATEKNILVSDMEMNEQQE
# Legend:
# Experiment in all cases: glycan array binding signal (z-score within array); higher = stronger binding
# Details in all cases: glycan notation: IUPAC condensed, linker removed
# [1] = molecular target: Neu5Ac(a2-6)Gal(b1-4)GlcNAc(b1-3)Gal(b1-4)GlcNAc(b1-6)[Gal(b1-3)]GalNAc
# In short: (§1)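 Negative Z-scores can be read as non-binding. The Z-score is calculated within each array and then averaged across arrays of one protein sequence at different concentrations or buffers and across linkers. Arrays, 3228 in all, were curated from the Consortium for Functional Glycomics database and kept only where the protein sequence was available.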
# [2] = molecular target: Neu5Ac(a2-6)Gal(b1-4)GlcNAc(b1-3)Gal(b1-4)[Fuc(a1-3)]GlcNAc(b1-3)Gal(b1-4)[Fuc(a1-3)]GlcNAc
# In short: as §1
# [3] = molecular target: Neu5Ac(a2-6)Gal(b1-4)GlcNAc(b1-3)GalNAc
# In short: as §1
# [4] = molecular target: Neu5Ac(a2-6)Gal(b1-4)GlcNAc(b1-3)[Neu5Ac(a2-6)Gal(b1-4)GlcNAc(b1-6)]GalNAc
# In short: as §1
# [5] = molecular target: Neu5Ac(a2-6)Gal(b1-4)GlcNAc(b1-6)GalNAc
# In short: as §1
# [6] = molecular target: Neu5Ac(a2-6)Gal(b1-4)GlcNAc(b1-6)[Gal(b1-3)GlcNAc(b1-3)]Gal(b1-4)Glc
# In short: as §1
# [7] = molecular target: Neu5Ac(a2-6)Gal(b1-4)GlcNAc(b1-6)[Gal(b1-3)]GalNAc
# In short: as §1
# [8] = molecular target: Neu5Ac(a2-6)Gal(b1-4)GlcNAc6S
# In short: as §1
# Neu5Ac(a2-6)GalNAc = molecular target: Neu5Ac(a2-6)GalNAc
# In short: as §1
# [9] = molecular target: Neu5Ac(a2-6)GalNAc(b1-4)GlcNAc
# In short: as §1
# [10] = molecular target: Neu5Ac(a2-6)GalNAc(b1-4)GlcNAc6S
# In short: as §1
# [11] = molecular target: Neu5Ac(a2-6)GlcNAc(b1-4)GlcNAc
# In short: as §1
# [12] = molecular target: Neu5Ac(a2-6)GlcNAc(b1-4)GlcNAc(b1-4)GlcNAc
# In short: as §1
# Neu5Ac(a2-8)Neu5Ac = molecular target: Neu5Ac(a2-8)Neu5Ac
# In short: as §1
# [13] = molecular target: Neu5Ac(a2-8)Neu5Ac(a2-3)Gal(b1-3)GalNAc(b1-4)[Neu5Ac(a2-3)]Gal(b1-4)Glc
# In short: as §1
# [14] = molecular target: Neu5Ac(a2-8)Neu5Ac(a2-3)Gal(b1-3)GalNAc(b1-4)[Neu5Ac(a2-8)Neu5Ac(a2-3)]Gal(b1-4)Glc
# In short: as §1
# [15] = molecular target: Neu5Ac(a2-8)Neu5Ac(a2-3)Gal(b1-4)Glc
# In short: as §1
# [16] = molecular target: Neu5Ac(a2-8)Neu5Ac(a2-3)Gal(b1-4)GlcNAc
# In short: as §1
# [17] = molecular target: Neu5Ac(a2-8)Neu5Ac(a2-3)[Gal(b1-3)GalNAc(b1-4)]Gal(b1-4)Glc
# In short: as §1
# [18] = molecular target: Neu5Ac(a2-8)Neu5Ac(a2-3)[GalNAc(b1-4)]Gal(b1-4)Glc
# In short: as §1
# [19] = molecular target: Neu5Ac(a2-8)Neu5Ac(a2-8)Neu5Ac
# In short: as §1
# [20] = molecular target: Neu5Ac(a2-8)Neu5Ac(a2-8)Neu5Ac(a2-3)Gal(b1-4)Glc
# In short: as §1
# [21] = molecular target: Neu5Ac(a2-8)Neu5Ac(a2-8)Neu5Ac(a2-3)[Gal(b1-3)GalNAc(b1-4)]Gal(b1-4)Glc
# In short: as §1
# [22] = molecular target: Neu5Ac(a2-8)Neu5Ac(a2-8)Neu5Ac(a2-3)[GalNAc(b1-4)]Gal(b1-4)Glc
# In short: as §1
# [23] = molecular target: Neu5Ac(a2-8)Neu5Ac(a2-8)Neu5Ac(a2-8)Neu5Ac(a2-3)[GalNAc(b1-4)]Gal(b1-4)Glc
# In short: as §1
# [24] = molecular target: Neu5Ac(a2-8)Neu5Gc(a2-3)Gal(b1-4)GlcNAc
# In short: as §1
# Neu5Ac(b1-6)GalNAc = molecular target: Neu5Ac(b1-6)GalNAc
# In short: as §1
# [25] = molecular target: Neu5Ac(b2-6)Gal(b1-4)GlcNAc
# In short: as §1
# Neu5Ac(b2-6)GalNAc = molecular target: Neu5Ac(b2-6)GalNAc
# In short: as §1
# [26] = molecular target: Neu5Ac9Ac(a2-3)Gal(b1-3)GlcNAc
# In short: as §1
# [27] = molecular target: Neu5Ac9Ac(a2-3)Gal(b1-4)GlcNAc
# In short: as §1
# [28] = molecular target: Neu5Ac9Ac(a2-6)Gal(b1-4)GlcNAc
# In short: as §1
# [29] = molecular target: Neu5Gc(a2-3)Gal(b1-3)GlcNAc
# In short: as §1
# [30] = molecular target: Neu5Gc(a2-3)Gal(b1-3)[Fuc(a1-4)]GlcNAc
# In short: as §1
# Neu5Gc(a2-3)Gal(b1-4)Glc = molecular target: Neu5Gc(a2-3)Gal(b1-4)Glc
# In short: as §1
# [31] = molecular target: Neu5Gc(a2-3)Gal(b1-4)GlcNAc
# In short: as §1
# [32] = molecular target: Neu5Gc(a2-3)Gal(b1-4)GlcNAc(b1-3)Gal(b1-4)GlcNAc(b1-2)Man(a1-3)[Neu5Gc(a2-3)Gal(b1-4)GlcNAc(b1-3)Gal(b1-4)GlcNAc(b1-2)Man(a1-6)]Man(b1-4)GlcNAc(b1-4)GlcNAc
# In short: as §1
# [33] = molecular target: Neu5Gc(a2-3)Gal(b1-4)[Fuc(a1-3)]GlcNAc
# In short: as §1
# [34] = molecular target: Neu5Gc(a2-6)Gal(b1-4)GlcNAc
# In short: as §1
# Neu5Gc(a2-6)GalNAc = molecular target: Neu5Gc(a2-6)GalNAc
# In short: as §1
# [35] = molecular target: Neu5Gc(a2-8)Neu5Ac(a2-3)Gal(b1-4)GlcNAc
# In short: as §1
# [36] = molecular target: Neu5Gc(a2-8)Neu5Gc(a2-3)Gal(b1-4)GlcNAc
# In short: as §1
# [37] = molecular target: Neu5Gc(a2-8)Neu5Gc(a2-3)Gal(b1-4)GlcNAc(b1-3)Gal(b1-4)GlcNAc
# In short: as §1
# [38] = molecular target: Neu5Gc(a2-8)Neu5Gc(a2-6)Gal(b1-4)GlcNAc
# In short: as §1
# [39] = molecular target: Neu5Gc(b2-6)Gal(b1-4)GlcNAc
# In short: as §1
binder,measurement,setting,value
B1,glycan array binding signal (z-score),[1],-0.864
same,glycan array binding signal (z-score),[2],2.78
same,glycan array binding signal (z-score),[3],-0.491
same,glycan array binding signal (z-score),[4],-0.518
same,glycan array binding signal (z-score),[5],0.474
same,glycan array binding signal (z-score),[6],-0.046
same,glycan array binding signal (z-score),[7],-0.138
same,glycan array binding signal (z-score),[8],0.125
same,glycan array binding signal (z-score),Neu5Ac(a2-6)GalNAc,-0.104
same,glycan array binding signal (z-score),[9],-0.431
same,glycan array binding signal (z-score),[10],-0.246
same,glycan array binding signal (z-score),[11],2.23
same,glycan array binding signal (z-score),[12],-0.668
same,glycan array binding signal (z-score),Neu5Ac(a2-8)Neu5Ac,-0.572
same,glycan array binding signal (z-score),[13],0.518
same,glycan array binding signal (z-score),[14],0.548
same,glycan array binding signal (z-score),[15],-0.412
same,glycan array binding signal (z-score),[16],-0.329
same,glycan array binding signal (z-score),[17],0.014
same,glycan array binding signal (z-score),[18],-0.037
same,glycan array binding signal (z-score),[19],0.198
same,glycan array binding signal (z-score),[20],0.246
same,glycan array binding signal (z-score),[21],0.644
same,glycan array binding signal (z-score),[22],0.628
same,glycan array binding signal (z-score),[23],-0.08
same,glycan array binding signal (z-score),[24],-0.753
same,glycan array binding signal (z-score),Neu5Ac(b1-6)GalNAc,-0.103
same,glycan array binding signal (z-score),[25],0.631
same,glycan array binding signal (z-score),Neu5Ac(b2-6)GalNAc,0.322
same,glycan array binding signal (z-score),[26],-0.884
same,glycan array binding signal (z-score),[27],-0.654
same,glycan array binding signal (z-score),[28],0.028
same,glycan array binding signal (z-score),[29],0.215
same,glycan array binding signal (z-score),[30],-0.098
same,glycan array binding signal (z-score),Neu5Gc(a2-3)Gal(b1-4)Glc,-0.136
same,glycan array binding signal (z-score),[31],-0.092
same,glycan array binding signal (z-score),[32],0.05
same,glycan array binding signal (z-score),[33],0.147
same,glycan array binding signal (z-score),[34],-0.099
same,glycan array binding signal (z-score),Neu5Gc(a2-6)GalNAc,-0.224
same,glycan array binding signal (z-score),[35],-0.032
same,glycan array binding signal (z-score),[36],-0.627
same,glycan array binding signal (z-score),[37],-1.17
same,glycan array binding signal (z-score),[38],-0.595
same,glycan array binding signal (z-score),[39],1.11

# Part of the list above, as tab-separated lines:
binder	measurement	setting	value
B1	glycan array binding signal (z-score)	[1]	-0.864
same	glycan array binding signal (z-score)	[8]	0.125
same	glycan array binding signal (z-score)	[10]	-0.246
same	glycan array binding signal (z-score)	[12]	-0.668
same	glycan array binding signal (z-score)	[13]	0.518
same	glycan array binding signal (z-score)	[26]	-0.884
same	glycan array binding signal (z-score)	[28]	0.028
same	glycan array binding signal (z-score)	[31]	-0.092
same	glycan array binding signal (z-score)	[32]	0.05
same	glycan array binding signal (z-score)	[33]	0.147
same	glycan array binding signal (z-score)	[35]	-0.032

# From the supplement of paper PMC8728848
